Holding throughout (assay): pull-down
In assay [1] the target is C-Strep HeV M (Hendra virus matrix protein with C-terminal Strep-tag II) (Hendra virus) (UniProt O89341).
Assay [2] has as its target N-Strep HeV M (Hendra virus matrix protein with N-terminal Strep-tag II) (Hendra virus) (UniProt O89341).
In assay [3] the target is Strep-ANP32B (N-terminally Strep-tagged ANP32B) (human) (UniProt Q92688).

Protein sequences, listed by entry. Tags and fused reporters are not part of them. Lines headed by an entry give the natural chain unless they say otherwise; changes in a name come on top.
UniProt Q92688: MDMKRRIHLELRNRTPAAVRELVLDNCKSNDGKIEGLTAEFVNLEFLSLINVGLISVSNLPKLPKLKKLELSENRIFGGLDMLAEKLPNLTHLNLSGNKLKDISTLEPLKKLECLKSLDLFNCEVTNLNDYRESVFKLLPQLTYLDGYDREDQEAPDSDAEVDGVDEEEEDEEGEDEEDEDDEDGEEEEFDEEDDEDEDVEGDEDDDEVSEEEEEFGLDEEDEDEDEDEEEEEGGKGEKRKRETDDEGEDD

No constants are given. Whether binding was seen depends on the method and setting. Binding seen in cells or lysates may run through a third protein. Some results given as binding are weak or reduced against the parent protein; the word gives no strength.

For “acidic leucine-rich nuclear phosphoprotein 32 family member B (ANP32B), endogenous (from UniProt Q92688-1 1-251)”, the binding entry in assay [1] and in assay [2] was “binds” throughout.
In the case of “untagged HeV M (Hendra virus matrix protein) (from UniProt O89341 1-352)”, the binding entry in assay [3] is “binds”.

These data come from article PMC4019565.
